Measurements taken from patent US10596224B2 (Biosolution Co., Ltd, priority 2016, dated 2020).
Strings that start with PEPTIDE1 are HELM notation: dots part the residues, brackets hold end groups and non-standard residues.

Test: peptide synthesis
Details: whole synthesis

PEPTIDE1{R.P.K.P.Q.Q.F.F.G.L.M.[am]}$$$$V2.0
final purity (method not given): 85% or more
